Measured values taken from PubChem BioAssay AID2685 (National Center for Advancing Translational Sciences (NCATS), 2010).
About 2,100 (0.66%) of roughly 320,000 compounds were called active. Inconclusive results, whose numbers are uncertain, are shown with a selection of clear calls. Calls come from the whole dose curve; as a rule, active = well fitted inhibition curve with a large enough effect in the signal ratio, with a control signal flat (not every such curve was filed as active); inconclusive = small, poorly fitted or top-dose-only effect, or effect the other way, or a change in a side signal; inactive = flat fitted curve, though single readings scatter; the % refers to the signal ratio. A potency beside an inconclusive call is a rough fit, not a confirmed value.

Assay: qHTS Assay for Lipid Storage Modulators in Drosophila S3 Cells
Conditions: BODIPY lipid droplet fluorescence, 18-24 h, cells fed with added oleic acid; lipid storage change, negative = inhibition: at 46.1 µM (top of the series) unless noted
Method in brief: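 Drosophila S3 cells loaded with oleic acid (400 uM, as added) and compounds at several concentrations; lipid droplets imaged by 488-nm laser-scanning cytometry, 500–530 nm intensity and object ratio to cell channel. Percent activity normalized to 20 uM Triacsin C.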
% is set by controls: 0 for no effect and ±100 for the full control effect; potency is the fitted concentration of half-maximal effect.

Potency, inconclusive:
Cc1ccc(C)c(OCCNc2ncccc2[N+](=O)[O-])c1 29.1 µM [falling, single point], Cc1cccc(S(=O)(=O)Nc2nc3ccccc3nc2NCc2ccc3c(c2)OCO3)c1 5.8 µM [activator, partial curve, poor fit], COc1ccccc1C(=O)OCCN=C1NS(=O)(=O)c2ccccc21 29.1 µM [falling, single point], COc1ccccc1N1CCN(/N=C/c2cc(OC)c(OC(C)=O)c(OC)c2)CC1 23.1 µM [rising, single point], Oc1ccccc1N=Cc1sc2ccccc2c1Cl 0.116 µM [falling, full curve, poor fit], O=C(CCNS(=O)(=O)c1cccc2nonc12)NC1CCCc2ccccc21 (configuration not stated) 0.0046 µM [falling, full curve, poor fit], O=C(Nc1nc2ccccc2s1)c1ccc(F)cc1 32.6 µM [activator, single point], Cc1cccc(-c2noc(-c3ccc(Cl)cc3[N+](=O)[O-])n2)c1 1.16 µM [activator, full curve, poor fit], CCCC(C)NC(=O)COc1ccc(S(=O)(=O)c2ccc(OCC(=O)NC(C)CCC)cc2)cc1 (configuration not stated) 18.4 µM [falling, single point], COc1ccccc1C(=O)Oc1ccc2ccc(=O)oc2c1 6.51 µM [activator, single point], COCc1ccc(C(=O)N(C)CC2CCCN(CCc3ccc(OC)cc3)C2)o1 (configuration not stated) 16.4 µM [falling, single point], Cc1cccc(Nc2nc(N)nc(CSc3nccc(C)n3)n2)c1 1.64 µM [activator, partial curve], Cc1cccc2sc(NC(=O)CN3C(=O)C4CC=CCC4C3=O)nc12 (configuration not stated) 0.0065 µM [falling, full curve, poor fit], CNC(=O)c1sccc1SCc1c(Cl)cccc1Cl 2.91 µM [activator, partial curve], CCOC(=O)C1=C(c2ccccc2)O/C(=C(/C(=O)OC)C(F)(F)F)S1 6.51 µM [activator, single point], Nc1cc(=O)nc(SCC(=O)N2CCN(c3ccccc3)CC2)n1-c1ccc(F)cc1 29.1 µM [activator, single point], CCOC(=O)CNC(=O)CSc1nnc(-c2cccc(C)c2)n1-c1ccc(OC)cc1 0.82 µM [activator, full curve], O=C(COc1ccccc1[N+](=O)[O-])Nc1cccc(S(=O)(=O)NC2=NCCCCC2)c1 0.58 µM [activator, full curve, poor fit], CCOc1cc(/C=N/O)ccc1OCc1ccccc1F 1.84 µM [activator, full curve], Cc1ccc(S(=O)(=O)NCc2ccc(/C=C(/C#N)C(=O)NCc3ccccc3)o2)cc1 29.1 µM [falling, single point], CN(C)CCCNS(=O)(=O)c1ccc(-n2nnc3ccccc32)c([N+](=O)[O-])c1 0.231 µM [falling, full curve, poor fit], COc1ccc(Cn2c(CCC(=O)Nc3ccccc3)nc3cccnc32)cc1 16.4 µM [rising, partial curve], Cc1ccc(S(=O)(=O)N2CCN(C(=O)CSC(=S)N3CCCC3)CC2)c(C)c1 6.51 µM [falling, single point]

Lipid storage change, negative = inhibition, inconclusive:
C[C@H](NC(=O)Nc1cccc(Br)c1)C(=O)O -47.1%, COc1ccc(CN2CCCN(S(=O)(=O)c3ccc(Br)cc3)CC2)cc1 13%, C=Cn1c(N2CCOCC2)nc2c1c(=O)[nH]c(=O)n2C 20.3%, CCNC(C(=O)c1c[nH]c2c(CC)cccc12)c1ccccc1 (configuration not stated) -2.14%, CCOC(=O)c1c(C)[nH]c(C)c1S(=O)(=O)N(C)CC(=O)Nc1cccc(F)c1 4.96%, CCNC(=O)CCSc1nnc(-c2ccco2)o1 203%, CCOC(=O)C1(Cc2ccccc2C)CCCN(C(=O)c2ccccn2)C1 (configuration not stated) 17.2%, Cc1oc(-c2ccccc2F)nc1CN1CCC(C(=O)NC2CC2)CC1 -6.45%, ONC(=Nc1ccc(Cl)cc1)c1ccccc1 -35.1%, CN(C)S(=O)(=O)N1CCc2ccccc21 -3.63%, CC1CCCC(C(=O)O)N1C(=O)CCSC(=O)c1ccccc1 (configuration not stated) -15.7%, CC(C)N(C(=O)CSc1nnc(NC(=O)c2ccco2)s1)C(C)C -20.7%, COc1ccc(-c2cc(-c3nnc(COC(=O)C4CC4C)o3)c3ccccc3n2)cc1OC (configuration not stated) -5.84%, O=C(CSc1nnc(-c2ccc(F)cc2)o1)N1CCCCC1 -10.4%, CN1CCC(=NNC(=O)C(=O)NCc2ccccc2)CC1 11.1%, C=CCNc1nnc(SC2CC(=O)N(c3ccc(OCCC)cc3)C2=O)s1 (configuration not stated) -28.4%, CCN(CC)C(=O)c1ccc(NS(=O)(=O)c2ccc(/C=C/C(=O)O)cc2)cc1 -7.87%, C=CCn1c(SCc2nc3ccccc3c(=O)[nH]2)nc2sc3c(c2c1=O)CCCC3 14%, Cc1cccc(N2CCN(C(=O)c3ccccc3SCC(=O)N3CCCC3)CC2)c1C -34%, CC(NC(=S)Nc1ccc(S(N)(=O)=O)cc1)c1ccc2c(c1)OCO2 (configuration not stated) 18.8%, Cc1ccc(C)c(NC(NC(=O)c2cccnc2)C(Cl)(Cl)Cl)c1 (configuration not stated) 6%, CN(Cc1cccnc1)C(=O)CNC(=O)COc1ccccc1 -0.751%, CCOc1ccccc1NC(=S)NNS(=O)(=O)c1c(C)cc(C)cc1C 12.3%, C=CCN1C(=O)c2ccc(C(=O)N(CCOC)c3c(N)n(CCCC)c(=O)[nH]c3=O)cc2C1=O -100%, CCCCn1c(N)c(N(CC(C)C)C(=O)c2cccs2)c(=O)[nH]c1=O, CC(=O)Nc1ccc2nc(-c3cccn3C)[nH]c2c1 54.5%, Brc1ccc2c(c1)OCCOCCOCCOCCOCCOCCO2 -4.03%, O=C(CN1CCN(Cc2ccccc2Cl)C1=O)NCc1cccnc1 -5.79%, CCN(C(=O)Cn1c(=O)oc2ccccc21)c1ccc(C)c(C)c1 38.4%, Cc1sc2nc(CSCC(=O)Nc3c(F)cccc3F)[nH]c(=O)c2c1C 21.8%, CC(=O)c1ccc2noc(-c3cccc(F)c3)c2c1 19.1%, COCCCNC(=O)c1ccccc1N(Cc1ccccc1)S(=O)(=O)c1ccccc1 11.4%, Cc1ccc(S(=O)(=O)N2CCC(=O)N(C(COCc3ccc(Cl)cc3)Cc3ccccc3)CC2)cc1 (configuration not stated) 28.5%, CC(=O)Nc1ccc(N2C(=O)CSC2c2cccc(Br)c2)cc1 (configuration not stated) 16.6%, Cc1cccc2cc(CN(Cc3cccs3)C(c3nnnn3C3CCCC3)C(C)C)c(=O)[nH]c12 (configuration not stated) 6.44%, Cc1ccc(S(=O)(=O)Nc2ccccc2F)cc1C(=O)N1CCCC1 3.1%, Cc1ccc(-c2nc(N/N=C/c3ccccc3[N+](=O)[O-])c3ccccc3n2)cc1 -5.69%, CC(=O)NCC(=O)N(c1ccccc1)C1(C(=O)NC2CCCCC2)CCCCC1 19.2%, COc1ccc(N(C(=O)C(C)C)S(=O)(=O)c2cccs2)cc1 37.9%, CC1CC1C(=O)OCC(=O)Nc1cccc(Br)c1 (configuration not stated), COc1ccc(/C=C2\C(=O)NC(=S)N2C(=O)c2ccc(F)cc2)cc1 -17.4%, O=C(O)C1=C[C@H](c2ccc(C(F)(F)F)cc2)C[C@H](OCc2ccc(CO)cc2)O1 25.9%, COc1ccc(OC)c(C(=O)NC(CC(N)=O)c2ccc(N3CCN(c4ccc(F)cc4)CC3)c([N+](=O)[O-])c2)c1 (configuration not stated) 7.33%, CC1Cc2cc(/C(O)=C3/C(=O)C(=O)N(CCN4CCOCC4)C3c3ccc(C(C)C)cc3)ccc2O1 (configuration not stated) -11.4%, O=C(Nc1cccc(Cl)c1)c1cccc(Oc2ccc([N+](=O)[O-])cc2Cl)c1 31%, Cc1ccc(NC(=O)c2ccc(Cl)c(S(=O)(=O)N3CCCCC3)c2)nc1 -24.6%, CC(=O)N1c2ccc(S(=O)(=O)N3CCC(C(=O)Nc4cccc(F)c4)CC3)cc2CC1C (configuration not stated) 136%, NC(=O)NS(=O)(=O)Oc1ccccc1 -14.8%, CCCNC(=O)Cn1cnc2sc(C(=O)NCCCN3CCOCC3)c(C)c2c1=O -100%, O=c1c2ccccc2c2ccccc2c(=O)n1-c1ccccc1 -47.1%, O=Cc1c(N2CCCCCC2)nc2ccccn2c1=O 7.47%, CCCc1nc2ccccc2n1CCOc1ccccc1 -7.53%, Cc1cccc(NC(=O)CN2CCN(C(=O)C3CCN(C(=O)/C=C/c4ccccc4)CC3)CC2)c1C -11.2%

Lipid storage change, negative = inhibition, inactive:
Brc1ccc(CSc2nnc(-c3ccco3)o2)cc1 4.11%
